In patent publication US20100303785A1 (RAMOT AT TEL AVIV UNIVERSITY, published 2010):
These are yes or no findings as the source states them, for the method shown. Some binding calls cover weakened binding; strength is not graded here.

Chains of the proteins cited; added tags and fusions are not shown. Lines headed by an entry give the natural chain unless they say otherwise; changes in a name come on top. A line that says so, or that is headed by a name, gives the form on record, which may keep a tag or linker.
Recombinant tau containing three tubulin binding repeats (3R) (P10636, form named): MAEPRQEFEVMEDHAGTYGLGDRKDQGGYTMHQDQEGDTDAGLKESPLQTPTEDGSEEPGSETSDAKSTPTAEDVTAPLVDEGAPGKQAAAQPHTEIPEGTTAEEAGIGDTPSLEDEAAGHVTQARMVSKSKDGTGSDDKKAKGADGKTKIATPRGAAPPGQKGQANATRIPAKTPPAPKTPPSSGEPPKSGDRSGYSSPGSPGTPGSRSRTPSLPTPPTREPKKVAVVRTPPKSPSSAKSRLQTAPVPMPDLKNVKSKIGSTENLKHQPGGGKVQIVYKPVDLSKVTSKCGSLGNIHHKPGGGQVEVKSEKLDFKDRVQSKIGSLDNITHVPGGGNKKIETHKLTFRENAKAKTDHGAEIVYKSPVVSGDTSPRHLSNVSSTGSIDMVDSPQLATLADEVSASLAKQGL

Columns and labels:
[1] = target: Recombinant tau containing three tubulin binding repeats (3R) (Homo sapiens) (UniProt P10636); experiment: summary of the examples' direct binding studies
[2] = target: Recombinant tau containing three tubulin binding repeats (3R) (Homo sapiens) (UniProt P10636); experiment: dot blot of NAP or VIP peptide with tau (FIG. 13)
[3] = target: Recombinant tau containing three tubulin binding repeats (3R) (Homo sapiens) (UniProt P10636); experiment: affinity chromatography on a NAP-affinity column, tau-specific western blot
[4] = target: Recombinant tau containing three tubulin binding repeats (3R) (Homo sapiens) (UniProt P10636); experiment: dot blot: NAP (10^-3M, 5 µl) on nitrocellulose, incubated with 2 µM 3R tau, detected with tau5 antibody

binding [1]: binds
binding [2]: binds
binding [3]: binds
binding [4]: binds
Binder: NAPVSIPQ [NAP (NAPVSIPQ = Asn-Ala-Pro-Val-Ser-Ile-Pro-Gln)]
